From paper PMC9549148, “Validation of the binding stoichiometry between HCN channels and their neuronal regulator TRIP8b by single molecule measurements” (Frontiers in Physiology, 2022)
No constants are given. Whether binding was seen depends on the method and setting. Binding seen in cells or lysates may run through a third protein. Binding calls can cover weak binding; strength is not graded here.

The chains behind the UniProt entries cited, without tags or fusion partners. Where a name states a change or a piece, a line headed by the entry shows the natural chain unless it says otherwise.
UniProt Q8C437: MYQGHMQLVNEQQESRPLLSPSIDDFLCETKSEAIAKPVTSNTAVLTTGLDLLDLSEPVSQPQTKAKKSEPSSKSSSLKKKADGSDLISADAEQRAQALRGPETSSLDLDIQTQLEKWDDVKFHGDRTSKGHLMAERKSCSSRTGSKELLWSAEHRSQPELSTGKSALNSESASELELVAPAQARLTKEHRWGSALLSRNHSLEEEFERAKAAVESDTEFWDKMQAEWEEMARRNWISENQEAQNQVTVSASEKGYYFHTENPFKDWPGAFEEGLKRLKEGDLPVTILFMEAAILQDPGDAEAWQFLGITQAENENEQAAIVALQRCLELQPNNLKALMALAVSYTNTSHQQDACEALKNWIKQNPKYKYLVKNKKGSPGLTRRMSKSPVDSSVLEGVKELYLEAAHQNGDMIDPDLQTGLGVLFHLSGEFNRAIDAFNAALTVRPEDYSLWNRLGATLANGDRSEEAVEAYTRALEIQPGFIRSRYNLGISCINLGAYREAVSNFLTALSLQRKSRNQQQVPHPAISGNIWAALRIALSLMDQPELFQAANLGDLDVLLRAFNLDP

Columns and labels:
[1] = target: T1, rabbit HCN4 carrying an internal deletion (from residues 783 to 1064) (rabbit) (UniProt Q9TV66); test: pull-down + SEC; HCN4 and His-EGFP-TRIP8b co-expressed in HEK293-F; membranes solubilised with detergent; affinity purification on Ni2+-NTA by the polyhistidine tag of EGFP-TRIP8b, then Superose 6 increase 10/300 GL in 200 mM NaCl, 20 mM HEPES pH 7.0, 0.002% LMNG-CHS; pooled fractions on SDS-PAGE and immunoblot (anti-HCN4, anti-TRIP8b)
T1 sequence: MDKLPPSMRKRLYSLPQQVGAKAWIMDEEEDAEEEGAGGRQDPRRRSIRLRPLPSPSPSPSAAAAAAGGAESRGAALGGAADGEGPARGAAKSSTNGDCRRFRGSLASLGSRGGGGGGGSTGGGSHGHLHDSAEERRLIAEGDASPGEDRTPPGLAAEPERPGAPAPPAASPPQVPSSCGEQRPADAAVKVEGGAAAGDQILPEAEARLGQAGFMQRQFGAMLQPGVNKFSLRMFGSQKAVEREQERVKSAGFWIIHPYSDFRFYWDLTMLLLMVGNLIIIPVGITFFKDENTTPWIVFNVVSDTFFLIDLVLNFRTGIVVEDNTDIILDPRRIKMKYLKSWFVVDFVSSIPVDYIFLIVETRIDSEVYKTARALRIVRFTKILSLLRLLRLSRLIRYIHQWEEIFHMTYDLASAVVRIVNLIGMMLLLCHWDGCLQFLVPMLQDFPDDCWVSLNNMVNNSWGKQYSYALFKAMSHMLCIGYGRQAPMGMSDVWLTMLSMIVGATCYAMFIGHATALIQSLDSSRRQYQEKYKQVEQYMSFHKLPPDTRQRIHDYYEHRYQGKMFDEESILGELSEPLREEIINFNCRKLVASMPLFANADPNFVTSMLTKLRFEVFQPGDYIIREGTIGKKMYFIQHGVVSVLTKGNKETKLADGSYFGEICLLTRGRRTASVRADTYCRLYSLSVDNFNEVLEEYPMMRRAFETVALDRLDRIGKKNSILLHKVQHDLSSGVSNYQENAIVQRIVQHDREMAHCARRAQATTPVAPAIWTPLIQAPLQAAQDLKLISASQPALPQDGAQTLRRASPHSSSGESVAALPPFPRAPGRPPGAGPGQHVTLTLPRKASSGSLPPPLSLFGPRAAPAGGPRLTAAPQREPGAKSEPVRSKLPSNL

[2] = target: EGFP-tagged TRIP8b (1a), full-length mouse TRIP8b (splice variant 1a4) (mouse) (UniProt Q8C437); test: as above

In the case of “N terminally degraded TRIP8b (mouse) (domain or fragment)”, the binding [1] is reported as “binds”.

B1: rabbit HCN4 carrying an internal deletion (from residues 783 to 1064) (natural protein, UniProt Q9TV66 1-1175, looked up)
chain: MDKLPPSMRKRLYSLPQQVGAKAWIMDEEEDAEEEGAGGRQDPRRRSIRLRPLPSPSPSPSAAAAAAGGAESRGAALGGAADGEGPARGAAKSSTNGDCRRFRGSLASLGSRGGGGGGGSTGGGSHGHLHDSAEERRLIAEGDASPGEDRTPPGLAAEPERPGAPAPPAASPPQVPSSCGEQRPADAAVKVEGGAAAGDQILPEAEARLGQAGFMQRQFGAMLQPGVNKFSLRMFGSQKAVEREQERVKSAGFWIIHPYSDFRFYWDLTMLLLMVGNLIIIPVGITFFKDENTTPWIVFNVVSDTFFLIDLVLNFRTGIVVEDNTDIILDPRRIKMKYLKSWFVVDFVSSIPVDYIFLIVETRIDSEVYKTARALRIVRFTKILSLLRLLRLSRLIRYIHQWEEIFHMTYDLASAVVRIVNLIGMMLLLCHWDGCLQFLVPMLQDFPDDCWVSLNNMVNNSWGKQYSYALFKAMSHMLCIGYGRQAPMGMSDVWLTMLSMIVGATCYAMFIGHATALIQSLDSSRRQYQEKYKQVEQYMSFHKLPPDTRQRIHDYYEHRYQGKMFDEESILGELSEPLREEIINFNCRKLVASMPLFANADPNFVTSMLTKLRFEVFQPGDYIIREGTIGKKMYFIQHGVVSVLTKGNKETKLADGSYFGEICLLTRGRRTASVRADTYCRLYSLSVDNFNEVLEEYPMMRRAFETVALDRLDRIGKKNSILLHKVQHDLSSGVSNYQENAIVQRIVQHDREMAHCARRAQATTPVAPAIWTPLIQAPLQAAQDLKLISASQPALPQDGAQTLRRASPHSSSGESVAALPPFPRAPGRPPGAGPGQHVTLTLPRKASSGSLPPPLSLFGPRAAPAGGPRLTAAPQREPGAKSEPVRSKLPSNL
notes: the extreme C-terminal SNL tripeptide is preserved; expected MW of the monomer 98.4 kDa; Cloned into the pCI vector; no tag is stated for HCN4; also called HCN4ΔC; modified HCN4 channels; source: HEK293-F, transiently co-transfected with TRIP8b; solubilised in detergent (LMNG-CHS), purified in complex with TRIP8b (Ni2+-NTA, Superose 6 SEC)
With B1 the binding [2] was “binds”.
